In US11766068B1, “Method of treating smokeless tobacco” (Altria Client Services LLC, priority 2009, dated 2023):
At least one compound was matched to its structure with a doubt left.

Assay: Total free iron level, quantitative colorimetric (590 nm) technique
Details: 50 µM deferoxamine; STE without chelator 29.4 ± 0.5 µM

For `CC(=O)N(O)CCCCCNC(=O)CCC(=O)N(O)CCCCCNC(=O)CCC(=O)N(O)CCCCCN` [deferoxamine], the “total free iron concentration of 100 mg/ml STE following exposure to chelator” value was 12.7 ± 0.5 µM.
